In PMC7969938:
No constants are given. Whether binding was seen depends on the method and setting. Binding seen in cells or lysates may run through a third protein. Some results given as binding are weak or reduced against the parent protein; the word gives no strength.

Amino acid sequences for entries named in this document (tags omitted). Residues count along the entry.
UniProt P21802, residues 22-821: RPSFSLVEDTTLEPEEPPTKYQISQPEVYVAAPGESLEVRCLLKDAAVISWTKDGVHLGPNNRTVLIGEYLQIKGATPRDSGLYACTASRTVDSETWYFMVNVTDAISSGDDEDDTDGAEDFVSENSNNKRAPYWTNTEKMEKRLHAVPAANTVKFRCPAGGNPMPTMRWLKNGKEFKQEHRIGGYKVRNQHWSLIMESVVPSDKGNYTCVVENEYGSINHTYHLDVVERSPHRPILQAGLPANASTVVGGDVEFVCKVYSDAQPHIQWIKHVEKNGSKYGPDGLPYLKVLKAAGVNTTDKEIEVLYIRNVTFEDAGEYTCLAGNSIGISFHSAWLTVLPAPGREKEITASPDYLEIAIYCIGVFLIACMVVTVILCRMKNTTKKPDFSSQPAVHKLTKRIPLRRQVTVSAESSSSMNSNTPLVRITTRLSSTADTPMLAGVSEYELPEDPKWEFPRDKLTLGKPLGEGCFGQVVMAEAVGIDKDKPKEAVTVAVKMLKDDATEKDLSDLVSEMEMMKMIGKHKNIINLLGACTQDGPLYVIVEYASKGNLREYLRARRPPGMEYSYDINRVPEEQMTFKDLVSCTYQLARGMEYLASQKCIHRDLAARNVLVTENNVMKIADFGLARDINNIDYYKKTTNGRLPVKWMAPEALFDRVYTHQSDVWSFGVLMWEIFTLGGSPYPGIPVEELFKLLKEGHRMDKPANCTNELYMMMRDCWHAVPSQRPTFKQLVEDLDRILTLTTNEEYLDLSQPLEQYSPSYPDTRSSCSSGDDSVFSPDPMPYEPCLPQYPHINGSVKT

Target: Fibroblast growth factor receptor 2 (FGFR2), C-terminally labelled with GFP or mCherry (UniProt P21802)
Test: FRET or BRET; serum-starved HEK293T transfected with FGFR2-GFP (donor) and FGFR2-mCherry (acceptor); confocal images of fixed cells, GFP 488/518 nm, mCherry 555/585 nm, FRET 488/585 nm; control (SC) and GRB2-depleted (G1) cells

Fibroblast growth factor receptor 2 (FGFR2), C-terminally labelled with GFP or mCherry (from UniProt P21802 22-821)
binding: binds
